These results are taken from PubChem BioAssay AID256 (DTP/NCI, 2004).

Each structure is given as a SMILES string. The list does not hold the whole screen: it gathers tests that were run many times, whatever their T/C, doses with no T/C, and many T/C values between a quarter and a half above the control. Other doses and runs of a compound stand elsewhere. T/C gives the treated animals as a percentage of the vehicle group. Some entries give survivors of the animals treated and no T/C: the source files T/C as zero there, which appears to mark a toxic dose or a test without result, not a measured value. Some doses without a T/C left all or most animals alive at the check, yet need not have been tolerated: the source hardly ever lists a survival T/C far under the control, and the zero likely stands for such cases as well. Survivors were counted at the toxicity check, usually on the fifth day, unless a day is given; later deaths do not show. Schedules are NCI's codes, read here as Q, the interval in days (D) or hours (H), X, the number of doses. Some doses were run more than once; the values are given in rising order. Some molecules as drawn cover several salts, stereoisomers or complexes of the source; a dose is that of the sample tested. Where survival is the endpoint, this PubChem deposit counts one and a half times the control or more as active, and values a quarter to a half above the control carry no call in these data; other NCI protocols may use other cut-offs. Some T/C values are followed by the survivors on the day toxicity was checked, most often the fifth; without a count, all were alive then.

This test deals with CD2F1 mice, L1210 leukemia ip, survival T/C. The test is described as follows: NCI In Vivo Anticancer Drug Screen. Data for tumor model L1210 Leukemia (intraperitoneal) in CD2F1 (CDF1) mice. The following applies: T/C endpoint: mean survival time, higher T/C = longer survival. In short, it runs like this:
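Read-out first: treated-group measurement over vehicle-control measurement, expressed as a ratio. Animals bore a transplanted tumor line and were dosed with compound or vehicle.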

Where [1] appears, read: dose: 25.0 mg/kg/injection, schedule: Q01DX009 (ip), vehicle: saline.
Setting [2] is: dose: 50.0 mg/kg/injection, schedule: Q01DX009 (ip), vehicle: saline.
Where [3] appears, read: dose: 100.0 mg/kg/injection, schedule: Q04DX002 (ip), vehicle: saline with Tween-80.
[4] abbreviates: dose: 200.0 mg/kg/injection, schedule: Q04DX002 (ip), vehicle: saline with Tween-80.
[5] abbreviates: dose: 400.0 mg/kg/injection, schedule: Q04DX002 (ip), vehicle: saline with Tween-80.
Where [6] appears, read: dose: 200.0 mg/kg/injection, schedule: Q01DX009 (ip), vehicle: water.
Where [7] appears, read: dose: 200.0 mg/kg/injection, schedule: Q04DX003 (ip), vehicle: saline.
[8] abbreviates: dose: 400.0 mg/kg/injection, schedule: Q04DX003 (ip), vehicle: saline.
[9] abbreviates: dose: 300.0 mg/kg/injection, schedule: Q01DX001 (ip), vehicle: saline.
The mark [10] stands for this setting: dose: 400.0 mg/kg/injection, schedule: Q01DX001 (ip), vehicle: saline.
Setting [11] is: dose: 50.0 mg/kg/injection, schedule: Q01DX009 (ip), vehicle: saline with Tween-80.

`CNc1nc2c(N)ncnc2n1C1OC(CO)C(O)C1O` (configuration not stated): the T/C is 128 % of control under setting [1] and 133 % of control [2 of 3 alive] under setting [3]. Moreover, the survivor count under setting [2] was 2 of 6; the survivor count (dose: 100.0 mg/kg/injection, schedule: Q01DX009 (ip), vehicle: saline) is listed as 1 of 6; the survivor count (dose: 100.0 mg/kg/injection, schedule: Q04DX002 (ip), vehicle: saline) is 1 of 6; the survivor count (dose: 200.0 mg/kg/injection, schedule: Q01DX009 (ip), vehicle: saline) is recorded as 1 of 6; the survivor count under setting [4] is given as 0 of 3; the survivor count under setting [5] is listed as 1 of 3.
`NNC(=O)c1ccccc1O`: the survivor count reads like this: (dose: 100.0 mg/kg/injection, schedule: Q04DX003 (ip), vehicle: Klucel (hydroxypropylcellulose) (HPC)) 6 of 6; (dose: 200.0 mg/kg/injection, schedule: Q04DX003 (ip), vehicle: Klucel (hydroxypropylcellulose) (HPC)) 6 of 6; (dose: 400.0 mg/kg/injection, schedule: Q04DX003 (ip), vehicle: Klucel (hydroxypropylcellulose) (HPC)) 1 of 6.
As to `Nc1nc(N)c(N=Nc2cccc3ccccc23)c(N)n1`, the survivor count is, setting by setting: under setting [6], 6 of 6; (dose: 400.0 mg/kg/injection, schedule: Q01DX009 (ip), vehicle: water) 4 of 6.
In the case of `CCC1=[N+](C)c2ccccc2C1(C)C`, the survivor count is, setting by setting: under setting [7], 0 of 3; under setting [8], 0 of 3.
Take `CCOC(=O)/C=C\C(=O)O.[Mn]`: the survivor count reads like this: under setting [7], 2 of 6; under setting [9], 3 of 6; under setting [10], 1 of 6; (dose: 400.0 mg/kg/injection, schedule: Q04DX002 (ip), vehicle: saline) 1 of 6; (dose: 500.0 mg/kg/injection, schedule: Q01DX001 (ip), vehicle: saline) 0 of 6.
For `CCN(CC)Cc1cc([N+](=O)[O-])ccc1O`, the survivor count under setting [9] is given as 1 of 6.
For the compound `[Cl][Pt+2][Cl].[NH-]c1cccc(F)c1.[NH-]c1cccc(F)c1`, the survivor count (dose: 100.0 mg/kg/injection, schedule: Q04DX003 (ip), vehicle: saline with Tween-80) was 2 of 3 and the survivor count (dose: 200.0 mg/kg/injection, schedule: Q04DX003 (ip), vehicle: saline with Tween-80) is recorded as 0 of 3.
On to `O/N=C/c1ccccc1O.O/N=C/c1ccccc1O.[Cu]`, for which, under setting [11], the survivor count was 5 of 6 and 10 of 10.
With `O=c1[nH]cc(F)c(=O)n1C1CCCCO1` (configuration not stated), the T/C is, setting by setting: under setting [1], 125 and 129 % of control; under setting [2], 128 % of control.
As for `CCCCN1CCNCC1`, under setting [8], the survivor count is given as 0 of 6.
Turning to `CCN(CC)CCCN(CC(=O)O)CC(=O)O`, the survivor count by setting is: (dose: 200.0 mg/kg/injection, schedule: Q01DX001 (ip), vehicle: saline) 1 of 4; under setting [10], 0 of 4.
For the compound `Cc1nc(-c2cccc(Cl)c2)oc1-c1ccccc1`, the T/C under setting [5] was 125 % of control.
In the case of `[Br][Pt].[NH-]CC[N-]CC[NH-]`, the survivor count runs as follows: (dose: 50.0 mg/kg/injection, schedule: Q01DX009 (ip), vehicle: water) 4 of 6; (dose: 100.0 mg/kg/injection, schedule: Q01DX009 (ip), vehicle: water) 0 of 6; under setting [6], 0 of 6.
For `CCOC(OCC)C(=O)OCC(=O)[C@]1(O)Cc2c(O)c3c(c(O)c2[C@@H](OC2CC(N)C(O)C(C)O2)C1)C(=O)c1c(OC)cccc1C3=O` (some centres not stated), the T/C was 145 % of control (dose: 0.25 mg/kg/injection, schedule: Q01DX009 (ip), vehicle: saline); 132 and 144 % of control [9 of 10 alive] (dose: 0.5 mg/kg/injection, schedule: Q01DX009 (ip), vehicle: saline); 129 % of control [4 of 6 alive] (dose: 1.0 mg/kg/injection, schedule: Q01DX009 (ip), vehicle: saline, evaluated on day 30); 127 % of control (dose: 1.0 mg/kg/injection, schedule: Q01DX009 (ip), vehicle: saline, evaluated on day 45); 131 % of control [5 of 6 alive] (dose: 2.0 mg/kg/injection, schedule: Q01DX009 (ip), vehicle: saline, evaluated on day 30); 143 % of control (dose: 2.0 mg/kg/injection, schedule: Q01DX009 (ip), vehicle: saline, evaluated on day 45). For the same compound, the T/C is 133 % of control [9 of 10 alive] (dose: 4.0 mg/kg/injection, schedule: Q01DX009 (ip), vehicle: saline, evaluated on day 30) and 136 % of control (dose: 4.0 mg/kg/injection, schedule: Q01DX009 (ip), vehicle: saline, evaluated on day 45). For the same compound, the survivor count (dose: 8.0 mg/kg/injection, schedule: Q01DX009 (ip), vehicle: saline) is recorded as 6 of 8, 9 of 10, 6 of 6.
Turning to `O=C1C=CC(=O)O1` (tested in a mixture with another compound), the survivor count by setting is: (dose: 6.25 mg/kg/injection, schedule: Q01DX001 (ip), vehicle: other) 1 of 6; (dose: 600.0 mg/kg/injection, schedule: Q01DX001 (ip), vehicle: saline) 3 of 6. Further, the T/C by setting is: (dose: 100.0 mg/kg/injection, schedule: Q01DX001 (ip), vehicle: saline) 129 % of control; (dose: 800.0 mg/kg/injection, schedule: Q01DX001 (ip), vehicle: saline) 129 % of control [5 of 6 alive]; (dose: 1200.0 mg/kg/injection, schedule: Q01DX001 (ip), vehicle: saline) 134 % of control.
`[Pt+2].[S-]c1ccccc1.[S-]c1ccccc1.c1ccc([PH+](c2ccccc2)c2ccccc2)cc1.c1ccc([PH+](c2ccccc2)c2ccccc2)cc1`: the survivor count (dose: 200.0 mg/kg/injection, schedule: Q04DX003 (sc), vehicle: distilled water + Tween-80) was 6 of 6.
On to `N#CSCN1C(=O)C2CC=CCC2C1=O` (configuration not stated), for which the survivor count (dose: 25.0 mg/kg/injection, schedule: Q04DX003 (ip), vehicle: saline with Tween-80) is recorded as 3 of 6.
As for `C/C=C/CNc1ccccc1`, the survivor count (dose: 400.0 mg/kg/injection, schedule: Q04DX003 (ip), vehicle: saline with Tween-80) is 5 of 6.
As for `O=C1C=CC(=O)C1=Cc1ccc(O)cc1`, the survivor count (dose: 20.0 mg/kg/injection, schedule: Q04DX002 (ip), vehicle: saline with Tween-80) is 0 of 3; the survivor count under setting [3] is recorded as 0 of 3; the survivor count under setting [4] is reported as 0 of 3; the survivor count under setting [5] is listed as 0 of 3.
Consider `CCCNc1ncc(C(=O)O)c(=O)[nH]1`, for which the survivor count by setting is: (dose: 25.0 mg/kg/injection, schedule: Q01DX009 (ip), vehicle: saline with Tween-80) 1 of 6; under setting [11], 0 of 6; (dose: 100.0 mg/kg/injection, schedule: Q01DX009 (ip), vehicle: saline with Tween-80) 1 of 6.
